Data as given in PubChem BioAssay AID743121 (NCATS, 2013)

Assay: 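Knock-downs that sensitise breast cancer cells to camptothecin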 (primary screen)
System: MDA-MB-231 cells, a human breast cancer line
Reagent: single siRNA against human genes, 20 nM siRNA (0.8 pmol per well)
Duration: 120 h (drug added 48 h after transfection, read 72 h later)
Conditions: camptothecin 20 nM (about EC30) for 72 h; vehicle 0.1% DMSO in parallel plates
Measured: 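CellTiter-Glo ATP signal, scaled to control siRNA as percent viability; sensitisation given as log2 of untreated divided by camptothecin-treated viability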
Direction: log2 vehicle/camptothecin viability: higher = stronger sensitisation to camptothecin
Hit rule: 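Active genes have an RSA gene-level p-value below 0.001, computed from the ratios of their separate siRNAs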
This is a random part of about 26,000 deposited reagents. 167 of them (0.63%) were called active. 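Calls are per gene from RSA p-values that are not deposited; an individual active-marked siRNA can sensitise only weakly.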 Reagents against one gene are numbered here. Further read-outs or replicates are left out here.

log2 vehicle/camptothecin viability, by gene and reagent
MAPDA (N6-Methyl-AMP deaminase): #1 -0.143 inactive; #2 -0.497 inactive; #3 -0.684 inactive
NECTIN4 (nectin cell adhesion molecule 4): #1 -0.121 inactive; #2 -0.125 inactive; #3 -0.213 inactive; #4 -0.298 inactive
LHX5 (LIM homeobox 5): #1 -0.287 inactive; #2 -0.368 inactive; #3 -0.137 inactive; #4 -0.111 inactive
SSH3 (slingshot protein phosphatase 3): #1 0.112 inactive; #2 -0.434 inactive; #3 -0.312 inactive; #4 -0.15 inactive
TENM1 (teneurin transmembrane protein 1): #1 -0.118 inactive; #2 -0.268 inactive; #3 -0.223 inactive; #4 -0.11 inactive
EPS8 (EGFR pathway substrate 8, signaling adaptor): #1 -0.213 inactive; #2 0.0301 inactive; #3 0.431 inactive; #4 -0.202 inactive
EBP (EBP cholestenol delta-isomerase): #1 -0.396 inactive; #2 -0.478 inactive; #3 -0.454 inactive; #4 -0.511 inactive
ADCY8 (adenylate cyclase 8): #1 0.102 inactive; #2 0.733 inactive
GALC (galactosylceramidase): #1 -0.32 inactive; #2 -0.441 inactive; #3 -0.197 inactive; #4 -0.161 inactive

11 entries from above, reformatted:
gene	reagent	log2 vehicle/camptothecin viability	activity call
TENM1 (teneurin transmembrane protein 1)	4	-0.11	inactive
EPS8 (EGFR pathway substrate 8, signaling adaptor)	1	-0.213	inactive
EPS8 (EGFR pathway substrate 8, signaling adaptor)	2	0.0301	inactive
EPS8 (EGFR pathway substrate 8, signaling adaptor)	3	0.431	inactive
EPS8 (EGFR pathway substrate 8, signaling adaptor)	4	-0.202	inactive
EBP (EBP cholestenol delta-isomerase)	1	-0.396	inactive
EBP (EBP cholestenol delta-isomerase)	2	-0.478	inactive
EBP (EBP cholestenol delta-isomerase)	3	-0.454	inactive
EBP (EBP cholestenol delta-isomerase)	4	-0.511	inactive
ADCY8 (adenylate cyclase 8)	1	0.102	inactive
ADCY8 (adenylate cyclase 8)	2	0.733	inactive

Additional records:
log2 vehicle/camptothecin viability, by gene and reagent
IPO7 (importin 7): #1 -0.389 inactive; #2 -0.444 inactive; #3 0.277 inactive
AHCYL1 (adenosylhomocysteinase like 1): #1 0.265 inactive; #2 -0.0593 inactive; #3 0.011 inactive; #4 -0.237 inactive
FGG (fibrinogen gamma chain): #1 -0.552 inactive; #2 -0.0116 inactive; #3 -0.373 inactive
ADGRG2 (adhesion G protein-coupled receptor G2): #1 -0.118 inactive; #2 -0.0647 inactive; #3 0.521 inactive; #4 -0.0344 inactive
SPTLC1 (serine palmitoyltransferase long chain base subunit 1): #1 -0.301 inactive; #2 0.0535 inactive; #3 -0.167 inactive; #4 -0.0653 inactive; #5 -0.0647 inactive; #6 0.0291 inactive; #7 -0.537 inactive; #8 -0.501 inactive
CEBPA (CCAAT enhancer binding protein alpha): #1 -0.783 inactive; #2 0.345 inactive; #3 -0.624 inactive; #4 -0.146 inactive
SERPINB2 (serpin family B member 2): #1 -0.324 inactive; #2 -0.294 inactive; #3 0.0794 inactive; #4 -0.0907 inactive
PYGL (glycogen phosphorylase L): #1 -0.543 inactive; #2 -0.317 inactive; #3 -0.442 inactive; #4 -0.0485 inactive
KPNA2 (karyopherin subunit alpha 2): #1 0.384 inactive; #2 -0.174 inactive; #3 -0.491 inactive
